Source: the supplement of paper PMC10849652
This is one part of the list.

Amino acid sequences for entries named in this document (tags omitted). A change or cut given only in a name is not applied to a line headed by its entry.
UniProt P56645: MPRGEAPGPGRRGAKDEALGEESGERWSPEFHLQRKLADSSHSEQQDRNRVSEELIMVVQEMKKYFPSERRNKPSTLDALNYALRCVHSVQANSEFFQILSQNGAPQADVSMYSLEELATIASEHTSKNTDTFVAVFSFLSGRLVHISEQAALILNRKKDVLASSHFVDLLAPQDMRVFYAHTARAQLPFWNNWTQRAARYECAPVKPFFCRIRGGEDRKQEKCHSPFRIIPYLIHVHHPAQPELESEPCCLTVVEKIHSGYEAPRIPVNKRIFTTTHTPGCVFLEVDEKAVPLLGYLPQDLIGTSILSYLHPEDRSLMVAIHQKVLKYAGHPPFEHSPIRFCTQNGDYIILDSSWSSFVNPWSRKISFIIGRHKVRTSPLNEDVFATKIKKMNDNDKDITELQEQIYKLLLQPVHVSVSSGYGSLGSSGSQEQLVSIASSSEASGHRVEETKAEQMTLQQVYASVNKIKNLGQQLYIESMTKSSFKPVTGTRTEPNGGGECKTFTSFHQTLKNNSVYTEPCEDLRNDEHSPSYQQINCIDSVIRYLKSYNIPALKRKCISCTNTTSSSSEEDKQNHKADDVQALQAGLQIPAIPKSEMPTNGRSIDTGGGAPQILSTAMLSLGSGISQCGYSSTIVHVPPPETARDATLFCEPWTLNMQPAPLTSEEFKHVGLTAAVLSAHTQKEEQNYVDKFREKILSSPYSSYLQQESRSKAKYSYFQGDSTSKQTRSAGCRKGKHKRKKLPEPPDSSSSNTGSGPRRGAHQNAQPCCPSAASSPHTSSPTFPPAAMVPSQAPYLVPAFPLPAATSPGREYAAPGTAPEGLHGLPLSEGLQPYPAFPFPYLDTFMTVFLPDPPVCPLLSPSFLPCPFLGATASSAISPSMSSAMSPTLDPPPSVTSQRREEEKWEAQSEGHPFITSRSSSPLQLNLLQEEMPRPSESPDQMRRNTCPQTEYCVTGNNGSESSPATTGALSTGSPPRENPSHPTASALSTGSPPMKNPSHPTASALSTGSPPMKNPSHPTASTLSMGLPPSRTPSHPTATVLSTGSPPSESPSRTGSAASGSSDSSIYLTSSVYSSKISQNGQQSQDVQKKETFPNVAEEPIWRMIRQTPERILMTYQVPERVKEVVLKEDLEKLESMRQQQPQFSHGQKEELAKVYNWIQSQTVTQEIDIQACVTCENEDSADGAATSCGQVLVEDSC
UniProt Q9UBV8: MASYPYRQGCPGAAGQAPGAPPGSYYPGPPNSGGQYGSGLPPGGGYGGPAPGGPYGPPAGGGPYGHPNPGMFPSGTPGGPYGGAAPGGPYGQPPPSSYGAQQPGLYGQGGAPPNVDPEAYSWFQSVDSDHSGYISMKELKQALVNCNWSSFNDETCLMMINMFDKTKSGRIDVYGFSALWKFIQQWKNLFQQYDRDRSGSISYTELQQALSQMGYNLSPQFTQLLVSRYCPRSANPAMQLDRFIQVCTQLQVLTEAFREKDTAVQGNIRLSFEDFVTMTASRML
UniProt Q7L3T8: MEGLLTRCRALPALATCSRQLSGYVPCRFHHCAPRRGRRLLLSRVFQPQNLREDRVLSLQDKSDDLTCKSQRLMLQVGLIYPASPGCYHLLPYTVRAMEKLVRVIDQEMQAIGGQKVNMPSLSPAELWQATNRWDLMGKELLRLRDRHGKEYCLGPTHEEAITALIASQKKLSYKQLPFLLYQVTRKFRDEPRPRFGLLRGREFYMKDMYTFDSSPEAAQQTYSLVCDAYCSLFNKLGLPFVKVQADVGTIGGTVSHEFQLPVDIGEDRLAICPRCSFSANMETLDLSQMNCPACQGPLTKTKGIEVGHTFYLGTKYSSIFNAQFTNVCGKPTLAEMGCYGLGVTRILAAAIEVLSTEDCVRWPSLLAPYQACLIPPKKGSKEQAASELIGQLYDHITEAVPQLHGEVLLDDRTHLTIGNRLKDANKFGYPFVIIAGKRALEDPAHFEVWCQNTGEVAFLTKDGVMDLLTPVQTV
UniProt Q96KB5: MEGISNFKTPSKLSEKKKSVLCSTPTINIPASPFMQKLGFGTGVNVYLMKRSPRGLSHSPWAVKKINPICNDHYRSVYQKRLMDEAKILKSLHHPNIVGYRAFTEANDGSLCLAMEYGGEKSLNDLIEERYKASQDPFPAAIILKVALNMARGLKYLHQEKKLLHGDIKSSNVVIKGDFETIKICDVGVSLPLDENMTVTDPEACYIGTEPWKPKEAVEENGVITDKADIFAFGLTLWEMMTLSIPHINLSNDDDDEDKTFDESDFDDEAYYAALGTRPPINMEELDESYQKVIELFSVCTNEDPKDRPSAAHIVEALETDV
UniProt O60925, whole entry, looked up: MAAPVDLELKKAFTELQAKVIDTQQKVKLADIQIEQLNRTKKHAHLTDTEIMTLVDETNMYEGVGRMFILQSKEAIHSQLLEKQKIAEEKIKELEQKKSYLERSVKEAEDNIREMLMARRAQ
UniProt Q460N5, whole entry, looked up: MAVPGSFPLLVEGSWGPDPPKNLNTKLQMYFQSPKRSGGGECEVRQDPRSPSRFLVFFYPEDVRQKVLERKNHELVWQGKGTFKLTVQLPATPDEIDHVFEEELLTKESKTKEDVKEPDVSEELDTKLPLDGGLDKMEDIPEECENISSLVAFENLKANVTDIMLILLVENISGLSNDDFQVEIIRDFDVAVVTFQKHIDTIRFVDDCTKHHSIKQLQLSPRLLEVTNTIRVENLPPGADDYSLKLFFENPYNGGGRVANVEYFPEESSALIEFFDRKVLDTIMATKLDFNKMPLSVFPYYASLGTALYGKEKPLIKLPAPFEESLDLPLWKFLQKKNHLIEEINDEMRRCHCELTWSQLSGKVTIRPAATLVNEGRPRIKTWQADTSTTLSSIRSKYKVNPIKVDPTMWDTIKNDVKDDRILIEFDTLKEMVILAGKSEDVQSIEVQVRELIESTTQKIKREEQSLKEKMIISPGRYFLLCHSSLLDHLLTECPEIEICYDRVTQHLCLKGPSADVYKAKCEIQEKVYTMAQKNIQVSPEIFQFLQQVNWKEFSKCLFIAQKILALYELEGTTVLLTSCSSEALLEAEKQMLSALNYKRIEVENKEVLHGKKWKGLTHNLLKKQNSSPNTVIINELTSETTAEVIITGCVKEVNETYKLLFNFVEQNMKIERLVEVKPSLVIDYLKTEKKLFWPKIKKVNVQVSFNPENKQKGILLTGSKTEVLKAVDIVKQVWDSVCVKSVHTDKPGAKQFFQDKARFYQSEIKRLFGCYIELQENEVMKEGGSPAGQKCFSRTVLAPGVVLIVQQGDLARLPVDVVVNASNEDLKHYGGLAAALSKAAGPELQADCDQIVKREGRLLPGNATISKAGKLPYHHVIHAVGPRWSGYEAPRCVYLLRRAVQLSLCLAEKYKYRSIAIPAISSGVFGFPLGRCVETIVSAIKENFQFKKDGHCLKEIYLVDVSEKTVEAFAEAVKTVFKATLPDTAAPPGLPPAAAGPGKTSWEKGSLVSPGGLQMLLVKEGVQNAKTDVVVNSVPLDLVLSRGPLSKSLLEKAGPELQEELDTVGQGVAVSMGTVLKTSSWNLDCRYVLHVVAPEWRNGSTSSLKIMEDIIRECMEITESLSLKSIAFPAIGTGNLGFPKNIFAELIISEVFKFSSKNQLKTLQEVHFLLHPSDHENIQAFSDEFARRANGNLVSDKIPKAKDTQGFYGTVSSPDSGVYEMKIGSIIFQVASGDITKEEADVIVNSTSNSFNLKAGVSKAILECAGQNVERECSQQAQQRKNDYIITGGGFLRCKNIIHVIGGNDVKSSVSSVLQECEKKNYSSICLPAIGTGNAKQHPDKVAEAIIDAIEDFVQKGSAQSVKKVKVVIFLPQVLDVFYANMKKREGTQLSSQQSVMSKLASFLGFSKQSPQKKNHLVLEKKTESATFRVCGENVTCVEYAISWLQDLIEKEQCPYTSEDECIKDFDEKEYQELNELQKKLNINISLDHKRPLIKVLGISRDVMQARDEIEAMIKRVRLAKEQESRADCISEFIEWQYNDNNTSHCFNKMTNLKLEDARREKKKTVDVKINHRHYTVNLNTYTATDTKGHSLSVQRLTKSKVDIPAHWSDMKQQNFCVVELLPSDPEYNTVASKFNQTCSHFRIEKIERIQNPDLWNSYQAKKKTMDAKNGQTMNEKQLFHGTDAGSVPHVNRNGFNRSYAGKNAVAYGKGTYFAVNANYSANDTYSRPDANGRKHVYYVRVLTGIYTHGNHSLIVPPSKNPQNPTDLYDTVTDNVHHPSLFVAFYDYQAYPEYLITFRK
UniProt P05165: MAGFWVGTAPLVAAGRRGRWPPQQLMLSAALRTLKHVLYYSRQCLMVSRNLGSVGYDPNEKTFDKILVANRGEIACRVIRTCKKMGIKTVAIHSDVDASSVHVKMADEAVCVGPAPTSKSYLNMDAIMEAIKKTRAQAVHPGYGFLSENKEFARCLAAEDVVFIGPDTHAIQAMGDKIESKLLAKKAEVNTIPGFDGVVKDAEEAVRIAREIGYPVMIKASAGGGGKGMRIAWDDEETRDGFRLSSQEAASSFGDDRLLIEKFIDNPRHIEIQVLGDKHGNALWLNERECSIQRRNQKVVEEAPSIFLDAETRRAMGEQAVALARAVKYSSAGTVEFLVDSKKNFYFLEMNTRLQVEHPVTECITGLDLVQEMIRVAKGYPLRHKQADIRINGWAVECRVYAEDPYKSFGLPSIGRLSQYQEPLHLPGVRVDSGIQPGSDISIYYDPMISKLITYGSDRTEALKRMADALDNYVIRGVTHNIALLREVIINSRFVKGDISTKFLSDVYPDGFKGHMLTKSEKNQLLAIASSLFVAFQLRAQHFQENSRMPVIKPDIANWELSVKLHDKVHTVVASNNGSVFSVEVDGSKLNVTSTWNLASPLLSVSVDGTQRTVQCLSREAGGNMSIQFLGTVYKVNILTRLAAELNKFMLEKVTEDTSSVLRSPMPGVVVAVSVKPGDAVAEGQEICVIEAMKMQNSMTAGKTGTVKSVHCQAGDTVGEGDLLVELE
UniProt Q9H2J4: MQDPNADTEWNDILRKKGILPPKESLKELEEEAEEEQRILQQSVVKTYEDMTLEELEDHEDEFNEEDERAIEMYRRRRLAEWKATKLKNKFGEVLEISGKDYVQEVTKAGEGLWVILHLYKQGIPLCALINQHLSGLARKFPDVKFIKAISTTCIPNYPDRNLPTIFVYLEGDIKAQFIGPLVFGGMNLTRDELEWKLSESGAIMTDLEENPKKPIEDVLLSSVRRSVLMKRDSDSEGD
UniProt P17858: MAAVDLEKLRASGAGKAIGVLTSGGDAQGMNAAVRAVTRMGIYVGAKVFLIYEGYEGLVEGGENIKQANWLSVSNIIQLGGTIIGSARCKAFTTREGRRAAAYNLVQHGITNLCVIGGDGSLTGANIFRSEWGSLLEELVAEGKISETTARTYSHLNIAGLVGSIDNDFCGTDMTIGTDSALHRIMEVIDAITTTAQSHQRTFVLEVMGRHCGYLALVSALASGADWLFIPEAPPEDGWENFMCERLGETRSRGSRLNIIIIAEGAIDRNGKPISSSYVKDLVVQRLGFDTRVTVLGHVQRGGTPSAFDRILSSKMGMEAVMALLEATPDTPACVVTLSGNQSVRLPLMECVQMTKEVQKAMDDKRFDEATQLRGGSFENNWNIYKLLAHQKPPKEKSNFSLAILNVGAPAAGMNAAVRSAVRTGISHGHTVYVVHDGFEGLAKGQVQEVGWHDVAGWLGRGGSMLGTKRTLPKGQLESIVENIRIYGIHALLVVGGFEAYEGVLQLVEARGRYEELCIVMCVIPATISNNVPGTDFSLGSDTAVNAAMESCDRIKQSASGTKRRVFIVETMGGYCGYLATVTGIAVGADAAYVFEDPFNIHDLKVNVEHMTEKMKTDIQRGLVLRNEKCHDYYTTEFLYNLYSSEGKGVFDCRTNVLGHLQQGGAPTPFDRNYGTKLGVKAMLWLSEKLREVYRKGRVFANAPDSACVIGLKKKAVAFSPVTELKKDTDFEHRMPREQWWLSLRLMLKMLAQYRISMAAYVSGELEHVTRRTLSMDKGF
UniProt P35227: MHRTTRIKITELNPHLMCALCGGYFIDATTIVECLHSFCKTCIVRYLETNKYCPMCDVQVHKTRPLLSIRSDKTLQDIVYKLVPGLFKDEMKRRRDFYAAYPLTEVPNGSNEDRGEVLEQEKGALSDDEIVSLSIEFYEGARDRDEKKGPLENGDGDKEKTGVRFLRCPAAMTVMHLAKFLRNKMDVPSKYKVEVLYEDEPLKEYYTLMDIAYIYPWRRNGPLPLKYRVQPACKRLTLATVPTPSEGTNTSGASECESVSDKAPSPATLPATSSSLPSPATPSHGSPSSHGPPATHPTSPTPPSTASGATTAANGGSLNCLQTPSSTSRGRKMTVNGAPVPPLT
UniProt Q96GD0: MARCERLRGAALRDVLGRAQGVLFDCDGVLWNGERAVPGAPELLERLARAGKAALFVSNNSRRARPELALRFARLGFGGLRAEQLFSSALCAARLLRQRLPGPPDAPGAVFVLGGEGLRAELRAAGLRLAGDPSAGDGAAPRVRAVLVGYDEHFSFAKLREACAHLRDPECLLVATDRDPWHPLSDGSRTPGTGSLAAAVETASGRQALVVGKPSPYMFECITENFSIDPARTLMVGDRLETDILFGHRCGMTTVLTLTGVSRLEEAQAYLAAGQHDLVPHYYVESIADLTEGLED

Key:
Assay in all cases: log2 fold change, soluble protein after heating vs DMSO (PISA); higher = thermal stabilisation; K562 lysate, 10 uM; active = over 0.2 and 3.5 SD of the protein, either way, in both replicates (recomputed)
[1] = compound: CS(=O)(=O)CCNCc1ccc(-c2ccc3ncnc(Nc4ccc(OCc5cccc(F)c5)c(Cl)c4)c3c2)o1 [lapatinib]
Method in brief: (§1)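 Following dounce homogenisation of K562 pellets in PBS pH 7.4 with 1 mM MgCl2, crude extract at 1 mg/mL protein was incubated for 30 min with 10 μM compound. Aliquots were then heated for 3 min over 48°C-58°C and pooled, NP-40 was added to 0.5% at 4°C, and soluble protein was recovered as the supernatant at 21,000xg for 90 min. Channel-sum-equalised TMTpro 16plex LC-MS/MS quantified this protein. Each value, from duplicates, is a log-two fold change in thermal stability relative to solvent controls.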

[2] = compound: CS(=O)(=O)N1CCN(Cc2cc3nc(-c4cccc5[nH]ncc45)nc(N4CCOCC4)c3s2)CC1 [pictilisib]
Method in brief: as §1

[3] = compound: C[C@@H](Oc1cc(-c2cnn(C3CCNCC3)c2)cnc1N)c1c(Cl)ccc(F)c1Cl [crizotinib]
Method in brief: as §1

[4] = compound: C[C@H](C1=CC=C(C=C1)C(=O)NC2=C3C=CNC3=NC=C2)N
Method in brief: as §1

[5] = compound: C[C@H](Nc1ncnc2nc[nH]c12)c1cc2cccc(Cl)c2c(=O)n1-c1ccccc1 [duvelisib]
Method in brief: as §1

[6] = compound: Cc1cc(Nc2cc(CN3CCOCC3)c3nc(C)c(Cc4ccc(Cl)cc4F)n3n2)n[nH]1 [gandotinib]
Method in brief: as §1

[7] = compound: Cc1cc(Nc2cc(N3CCN(C)CC3)nc(Sc3ccc(NC(=O)C4CC4)cc3)n2)n[nH]1 [tozasertib]
Method in brief: as §1

[8] = compound: Cc1ccc(-n2nc(C(C)(C)C)cc2NC(=O)Nc2ccc(OCCN3CCOCC3)c3ccccc23)cc1 [doramapimod]
Method in brief: as §1

[9] = compound: Cc1ccc(NC(=O)c2ccc(CN3CC[C@H](N(C)C)C3)c(C(F)(F)F)c2)cc1Nc1nccc(-c2cncnc2)n1 [bafetinib]
Method in brief: as §1

[10] = compound: Cc1cccc(CC(=O)N2CCc3c2ccc(-c2cn(C)c4ncnc(N)c24)c3F)n1
Method in brief: as §1

[11] = compound: Cc1cn(-c2cc(NC(=O)c3ccc(C)c(Nc4nccc(-c5cccnc5)n4)c3)cc(C(F)(F)F)c2)cn1 [nilotinib]
Method in brief: as §1

[12] = compound: Cc1nc(Nc2n[nH]c3c2CN(C(=O)N[C@H](CN(C)C)c2ccccc2)C3(C)C)c2sccc2n1
Method in brief: as §1

[13] = compound: Cc1nc(Nc2ncc(C(=O)Nc3c(C)cccc3Cl)s2)cc(N2CCN(CCO)CC2)n1 [dasatinib]
Method in brief: as §1

[14] = compound: Cc1ncc(-c2ccnc(Nc3ccc(S(C)(=O)=O)cc3)n2)n1C(C)C
Method in brief: as §1

[15] = compound: Cn1cc(-c2ccc3c(c2)CCN3C(=O)Cc2cccc(C(F)(F)F)c2)c2c(N)ncnc21
Method in brief: as §1

[16] = compound: Cn1cc(CNCC2CCN(c3ncc(C(=O)NO)cn3)CC2)c2ccccc21 [quisinostat]
Method in brief: as §1

[17] = compound: Cn1cncc1[C@@](N)(c1ccc(Cl)cc1)c1ccc2c(c1)c(-c1cccc(Cl)c1)cc(=O)n2C [tipifarnib]
Method in brief: as §1

[18] = compound: NC(=O)Nc1cc(-c2cccc(F)c2)sc1C(=O)N[C@H]1CCCNC1
Method in brief: as §1

[19] = compound: NC(=O)c1cnc(N[C@@H]2CCCC[C@@H]2N)nc1Nc1cccc(-n2nccn2)c1
Method in brief: as §1

[20] = compound: NC1(c2ccc(-c3nc4ccn5c(=O)[nH]nc5c4cc3-c3ccccc3)cc2)CCC1
Method in brief: as §1

Measured: log2 fold change

PAXIP1 (UniProt Q6ZW49)
inactive: [1] -0.009 | [2] -0.008 | [3] 0.034 | [4] 0.048 | [5] 0.03 | [6] -0.075 | [7] 0.028 | [8] 0.038 | [9] 0.021 | [10] -0.054 | [11] -0.041 | [12] -0.112 | [13] 0.044 | [14] 0.018 | [15] -0.033 | [16] -0.068 | [17] -0.166 | [18] 0.022 | [19] -0.075 | [20] -0.011

PER3 isoform 2 (UniProt P56645)
inactive: [1] 0.019 | [2] -0.069 | [3] 0.04 | [4] -0.014 | [5] -0.058 | [6] -0.019 | [7] 0.066 | [8] -0.036 | [9] 0.005 | [10] -0.071 | [11] 0.056 | [12] -0.041 | [13] 0.058 | [14] -0.01 | [15] 0.008 | [16] 0.085 | [17] 0.03 | [18] 0.003 | [19] -0.016 | [20] 0.022

PEF1 (UniProt Q9UBV8)
inactive: [1] 0.019 | [2] 0.041 | [3] -0.002 | [4] 0.051 | [5] -0.004 | [6] -0.055 | [7] 0.032 | [8] -0.01 | [9] -0.027 | [10] 0.051 | [11] 0.026 | [12] 0.013 | [13] 0.012 | [14] -0.015 | [15] -0.004 | [16] 0.08 | [17] 0.028 | [18] -0.018 | [19] 0.005 | [20] 0.011

PARS2 (UniProt Q7L3T8)
inactive: [1] -0.028 | [2] -0.017 | [3] -0.026 | [4] 0.025 | [5] 0.036 | [6] -0.031 | [7] 0.018 | [8] 0.007 | [9] 0.073 | [10] -0.03 | [11] -0.011 | [12] -0.019 | [13] 0.015 | [14] 0.046 | [15] -0.033 | [16] 0.062 | [17] -0.035 | [18] -0.009 | [19] -0.012 | [20] 0.007

PBK (UniProt Q96KB5)
inactive: [1] -0.024 | [2] -0.011 | [3] -0.005 | [4] 0.013 | [5] -0.006 | [6] -0.066 | [7] -0.005 | [8] -0.021 | [9] -0.02 | [10] -0.01 | [11] -0.01 | [12] 0.006 | [13] -0.035 | [14] 0.017 | [15] 0.017 | [16] -0.02 | [17] 0.033 | [18] 0.032 | [19] 0.017 | [20] 0.024

PFDN1 (UniProt O60925)
inactive: [1] 0.088 | [2] -0.039 | [3] 0.056 | [4] 0.12 | [5] 0.006 | [6] -0.121 | [7] 0.032 | [8] -0.013 | [9] -0.034 | [10] -0.132 | [11] 0.036 | [12] 0.022 | [13] 0.021 | [14] 0.063 | [15] -0.007 | [16] 0.068 | [17] 0.076 | [18] -0.079 | [19] -0.044 | [20] 0.031

PARP14 (UniProt Q460N5)
inactive: [1] -0.018 | [2] -0.057 | [3] -0.154 | [4] 0.148 | [5] -0.13 | [6] -0.123 | [7] -0.013 | [8] -0.013 | [9] -0.081 | [10] 0 | [11] 0.004 | [12] -0.022 | [13] -0.024 | [14] 0.068 | [15] 0.256 | [16] -0.025 | [17] -0.068 | [18] 0.128 | [19] 0.051 | [20] -0.09

PCCA (UniProt P05165)
inactive: [1] 0.029 | [2] -0.023 | [3] -0.008 | [4] 0.009 | [5] 0.014 | [6] -0.022 | [7] 0.009 | [8] 0.004 | [9] 0.014 | [10] 0.018 | [11] 0.072 | [12] -0.031 | [13] 0.001 | [14] -0.023 | [15] -0.027 | [16] 0.045 | [17] -0.009 | [18] -0.008 | [19] 0.012 | [20] 0.013

PDCD2L (UniProt Q9BRP1)
inactive: [1] 0 | [2] 0.001 | [3] -0.056 | [4] -0.088 | [5] 0.028 | [6] 0.011 | [7] -0.005 | [8] 0.008 | [9] -0.05 | [10] 0.04 | [11] -0.011 | [12] 0.061 | [13] 0.006 | [14] 0.023 | [15] -0.041 | [16] -0.087 | [17] -0.024 | [18] 0.024 | [19] -0.009 | [20] -0.011

PDCL3 (UniProt Q9H2J4)
inactive: [1] -0.004 | [2] -0.02 | [3] 0.054 | [4] -0.023 | [5] 0.013 | [6] 0.028 | [7] 0.003 | [8] 0 | [9] 0.022 | [10] -0.008 | [11] 0.019 | [12] -0.024 | [13] 0.013 | [14] -0.02 | [15] 0 | [16] -0.005 | [17] -0.003 | [18] -0.011 | [19] -0.008 | [20] -0.014

PFDN5 (UniProt Q99471)
inactive: [1] 0.04 | [2] 0.004 | [3] 0.004 | [4] 0.114 | [5] 0.018 | [6] -0.1 | [7] 0.034 | [8] -0.005 | [9] 0.043 | [10] -0.124 | [11] 0.056 | [12] 0 | [13] 0.003 | [14] 0.096 | [15] -0.009 | [16] 0.055 | [17] 0.041 | [18] -0.059 | [19] -0.024 | [20] 0.004

PFKL isoform 2 (UniProt P17858)
inactive: [1] -0.012 | [2] -0.015 | [3] -0.062 | [4] -0.029 | [5] -0.1 | [6] 0.022 | [7] 0.011 | [8] -0.006 | [9] -0.032 | [10] 0.018 | [11] 0.002 | [12] 0.006 | [13] -0.007 | [14] 0.012 | [15] -0.011 | [16] -0.085 | [17] -0.034 | [18] 0.03 | [19] -0.003 | [20] -0.047

PCGF2 (UniProt P35227)
inactive: [1] 0.101 | [2] -0.015 | [3] -0.003 | [4] 0.029 | [5] -0.055 | [6] -0.093 | [7] 0.012 | [8] 0.046 | [9] -0.014 | [10] -0.014 | [11] -0.072 | [12] 0.046 | [13] 0.042 | [14] -0.048 | [15] 0.007 | [16] -0.011 | [17] 0.035 | [18] 0.027 | [19] -0.065 | [20] 0.092

PDXP (UniProt Q96GD0)
inactive: [1] -0.024 | [2] -0.025 | [3] -0.029 | [4] -0.05 | [5] -0.01 | [6] 0.025 | [7] 0.007 | [8] 0.074 | [9] 0.002 | [10] 0 | [11] -0.001 | [12] -0.024 | [13] -0.001 | [14] 0.012 | [15] 0 | [16] 0.044 | [17] 0.077 | [18] -0.042 | [19] 0.008 | [20] 0.076

PECAM1 (UniProt P16284)
inactive: [1] 0.01 | [2] -0.032 | [3] -0.011 | [4] -0.018 | [5] 0.026 | [6] 0.108 | [7] 0.022 | [8] -0.016 | [9] -0.061 | [10] 0.025 | [11] 0.021 | [12] -0.03 | [13] -0.055 | [14] 0.03 | [15] -0.023 | [16] -0.045 | [17] -0.053 | [18] 0.008 | [19] -0.013 | [20] -0.001

PDIA4 (UniProt P13667)
inactive: [1] -0.018 | [2] 0.006 | [3] 0.09 | [4] 0.029 | [5] -0.011 | [6] -0.026 | [7] 0 | [8] -0.057 | [9] 0.014 | [10] -0.045 | [11] 0.008 | [12] -0.006 | [13] 0.006 | [14] 0.014 | [15] 0.004 | [16] 0.154 | [17] 0.029 | [18] -0.004 | [19] -0.02 | [20] 0.008
